PubChem BioAssay AID743454 – Peter MacCallum Cancer Centre – 2014
Screen: 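Genes whose loss kills vorinostat-resistant colon cancer cells under vorinostat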 (primary screen). Cells: human HCT116-VR colon cancer cells, selected for vorinostat resistance. Reagent: siRNA pool against human genes, 40 nM siRNA pool. Duration: vorinostat for 24 h, read-out about 72 h after transfection. Conditions: vorinostat at 2.5 µM final. Measured: 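Cell viability by CellTiter-Fluor and caspase 3/7 activity by luminescence, each scaled to mock wells per plate, duplicates averaged, then robust z-scored over all plates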. Scale: viability robust z-score: higher = more viable cells than screen typical; caspase robust z-score: higher = more caspase 3/7 activity than screen typical. Call rule: 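Hits are knock-downs in viability class RV1/RV2 or caspase class CA1/CA2, excluding ones that killed cells in the no-drug cell-count arm; hits then retested with single siRNAs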.
Here is one part, drawn at random, of about 18,000 deposited reagents. In the full data, 450 (2.5%) got an active call. 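Single biological run; no consistent viability z cut-off exists, so the class columns, not z-scores, define the calls.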 Entries without a mark were called inactive. Reagents against one gene are numbered here. Reagent sequences are not shown.

no.	gene symbol	reagent	viability hit class	caspase hit class	viability robust z-score	caspase robust z-score
1	GOLGA8A	1	no change	no change	-0.71	-0.82
2	DHRS13	1	no change	no change	0.08	3.05
3	MCPH1	1	no change	no change	-0.81	0
4	ARHGAP36	1	no change	no change	-1.27	2.58
5	MEP1B	1	no change	no change	0.8	-0.42
6	NALCN	1	no change	no change	0.75	-0.45
7	PDE10A	1	no change	no change	1.16	-0.7
8	PRRG3	1	no change	no change	0.15	-0.31
9	STK11	1	no change (active)	CA1 (caspase activation)	-1.78	7.31
10	EBLN2	1	no change	no change	0.12	-0.27
11	FGL2	1	no change	no change	1.15	-0.16
12	PTPN18	1	no change	no change	0.66	0.06
13	PARP2	1	no change	no change	2.28	-0.44
14	METAP1D	1	no change	no change	-0.23	-1
15	STXBP4	1	no change	no change	1.42	-0.77
16	STAG2	1	no change	no change	0.2	-0.46
17	ACY3	1	no change	no change	0.13	2.77
18	PDIA4	1	no change	no change	0.7	-0.69
19	RMP24	1	no change	no change	0.22	-0.14
20	CTDP1	1	no change	no change	0.09	0.3
21	RBMY1B	1	no change	no change	-0.04	-0.94
22	SV2B	1	no change	no change	0.46	-0.55
23	CPT1A	1	no change	no change	1.42	-0.33
24	RAB6B	1	no change	no change	-0.24	-1
25	BEND7	1	no change	no change	-0.2	-0.48
26	C9	1	no change	no change	0.24	-0.06
27	MIA2	1	no change	no change	0.11	-1.38
28	MIA2	2	no change	no change	1.04	-0.56
29	PKIB	1	no change	no change	0.14	-0.16
30	GDAP2	1	no change	no change	0.12	1
31	DPF3	1	no change	no change	-1.55	1.04
32	MYO18B	1	no change	no change	0.32	-0.22
33	DCUN1D4	1	no change	no change	-1.2	2.82
34	CCDC27	1	no change	no change	0.02	-1.01
35	OR6S1	1	no change	no change	2.12	0.02
36	PTPRA	1	no change	no change	0.82	0.13
37	LCMT1	1	no change	no change	-0.17	-0.58
38	RRM2B	1	no change	no change	-0.02	1.03

Only “viability robust z-score” (5 entries from above):
C9: 0.24
MIA2 #1: 0.11
MIA2 #2: 1.04
PKIB: 0.14
GDAP2: 0.12

More reagents:
no.	gene symbol	reagent	viability hit class	caspase hit class	viability robust z-score	caspase robust z-score
39	TMEM192	1	no change	no change	0.37	-0.42
40	CRYM	1	no change	no change	-0.75	-1.16
41	LBX1	1	no change	no change	-0.22	0.9
42	ZSCAN5B	1	no change	no change	0.22	-0.88
43	APOC3	1	no change	no change	-0.5	-0.55
44	PRKD3	1	no change	no change	-0.96	1.38
45	AKR7L	1	no change	no change	0.76	0.28
46	GBP1	1	no change	no change	0.28	2.21
47	ZNF443	1	no change	no change	-0.84	0.23
48	RFLNB	1	no change	no change	-1.36	2.54
49	PRR13	1	no change	no change	0.7	-0.2
50	RNF24	1	no change	no change	-0.16	-0.98
51	COQ6	1	no change	no change	0.22	-0.36
52	BLMH	1	no change	no change	-0.16	-0.7
53	MAG	1	no change	no change	0.2	0.24
54	EVI2B	1	no change	no change	-0.04	0.76
55	RMND5A	1	no change	no change	-0.77	-1.13
56	CTNNA3	1	no change	no change	1.18	0.12
57	SULT1E1	1	no change	no change	0.16	-0.78
